The values below come from US8344173 (dated 2013).

The data set is described as follows: peptide synthesis. Particulars: conjugation step.

As for “tris(methoxypolyethylene glycol350)tris[carbobenzyloxylysyl-aminomalonylbis(diethylmalonate)]cyclotriphosphazene”, the conjugation yield was 71%. With “tris(methoxypolyethylene glycol350)tris[carbobenzyloxylysyl-aspartylbis(diethylaspartate)]cyclotriphosphazene”, the conjugation yield stood at 76%.

For “tris(methoxypolyethylene glycol350)tris[carbobenzyloxylysyl-glutamylbis(diethylglutamate)]cyclotriphosphazene”, the conjugation yield was 68%. Turning to “tris(methoxypolyethylene glycol550)tris[carbobenzyloxylysyl-aminomalonylbis(diethylmalonate)]cyclotriphosphazene”, the conjugation yield turned out to be 68%.

On to “tris(methoxypolyethylene glycol550)tris[carbobenzyloxylysyl-aspartylbis(diethylaspartate)]cyclotriphosphazene”, for which the conjugation yield stood at 62%. Next, “tris(methoxypolyethylene glycol550)tris[carbobenzyloxylysyl-glutamylbis(diethylglutamate)]cyclotriphosphazene”: 58%. In turn, “tris(methoxypolyethylene glycol750)tris[carbobenzyloxylysyl-aminomalonylbis(diethylmalonate)]cyclotriphosphazene” showed a conjugation yield of 62%. In turn, “tris(methoxypolyethylene glycol750)tris[carbobenzyloxylysyl-aspartylbis(diethylaspartate)]cyclotriphosphazene” showed a conjugation yield of 51%. Turning to “tris(methoxypolyethylene glycol750)tris[carbobenzyloxylysyl-glutamylbis(diethylglutamate)]cyclotriphosphazene”, the conjugation yield came out at 60%.
